Source: article PMC5183628

Biological target: T1, C-terminal non-photoactive region of rice PHYB (rice (Oryza sativa)) (UniProt Q10MG9)
T1 sequence: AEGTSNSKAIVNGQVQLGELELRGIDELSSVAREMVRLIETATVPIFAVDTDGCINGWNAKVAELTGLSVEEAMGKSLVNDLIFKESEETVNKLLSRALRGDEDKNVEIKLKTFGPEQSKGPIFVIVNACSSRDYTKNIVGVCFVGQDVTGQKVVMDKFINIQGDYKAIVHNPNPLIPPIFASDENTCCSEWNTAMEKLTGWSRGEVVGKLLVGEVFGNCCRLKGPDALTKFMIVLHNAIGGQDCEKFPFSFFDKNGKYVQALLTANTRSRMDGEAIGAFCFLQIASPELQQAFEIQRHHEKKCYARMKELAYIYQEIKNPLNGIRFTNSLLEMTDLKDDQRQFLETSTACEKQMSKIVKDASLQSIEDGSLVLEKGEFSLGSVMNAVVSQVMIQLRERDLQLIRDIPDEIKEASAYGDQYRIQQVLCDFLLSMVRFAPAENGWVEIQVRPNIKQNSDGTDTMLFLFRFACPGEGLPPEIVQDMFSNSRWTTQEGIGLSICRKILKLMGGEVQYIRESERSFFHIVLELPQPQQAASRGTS
Experiment: two-hybrid; GAL4 system in yeast strain AH109; bait: C-terminal region of PHYB in pGBKT7; prey: OsPIL16 in pGADT7; growth on SD -Leu -Trp -His with 20 mM 3-AT; three independent clones for each sample

binding: binds
Substance: OsPIL16 (rice phytochrome-interacting factor-like protein 16)

Results are given in words; binding and its absence hold for the method and conditions named. A result given as binding can be weak or reduced; the word gives no strength.
